# Results as given in PMC4728445.
# Chains of the proteins cited; added tags and fusions are not shown.
# UniProt Q80TR8: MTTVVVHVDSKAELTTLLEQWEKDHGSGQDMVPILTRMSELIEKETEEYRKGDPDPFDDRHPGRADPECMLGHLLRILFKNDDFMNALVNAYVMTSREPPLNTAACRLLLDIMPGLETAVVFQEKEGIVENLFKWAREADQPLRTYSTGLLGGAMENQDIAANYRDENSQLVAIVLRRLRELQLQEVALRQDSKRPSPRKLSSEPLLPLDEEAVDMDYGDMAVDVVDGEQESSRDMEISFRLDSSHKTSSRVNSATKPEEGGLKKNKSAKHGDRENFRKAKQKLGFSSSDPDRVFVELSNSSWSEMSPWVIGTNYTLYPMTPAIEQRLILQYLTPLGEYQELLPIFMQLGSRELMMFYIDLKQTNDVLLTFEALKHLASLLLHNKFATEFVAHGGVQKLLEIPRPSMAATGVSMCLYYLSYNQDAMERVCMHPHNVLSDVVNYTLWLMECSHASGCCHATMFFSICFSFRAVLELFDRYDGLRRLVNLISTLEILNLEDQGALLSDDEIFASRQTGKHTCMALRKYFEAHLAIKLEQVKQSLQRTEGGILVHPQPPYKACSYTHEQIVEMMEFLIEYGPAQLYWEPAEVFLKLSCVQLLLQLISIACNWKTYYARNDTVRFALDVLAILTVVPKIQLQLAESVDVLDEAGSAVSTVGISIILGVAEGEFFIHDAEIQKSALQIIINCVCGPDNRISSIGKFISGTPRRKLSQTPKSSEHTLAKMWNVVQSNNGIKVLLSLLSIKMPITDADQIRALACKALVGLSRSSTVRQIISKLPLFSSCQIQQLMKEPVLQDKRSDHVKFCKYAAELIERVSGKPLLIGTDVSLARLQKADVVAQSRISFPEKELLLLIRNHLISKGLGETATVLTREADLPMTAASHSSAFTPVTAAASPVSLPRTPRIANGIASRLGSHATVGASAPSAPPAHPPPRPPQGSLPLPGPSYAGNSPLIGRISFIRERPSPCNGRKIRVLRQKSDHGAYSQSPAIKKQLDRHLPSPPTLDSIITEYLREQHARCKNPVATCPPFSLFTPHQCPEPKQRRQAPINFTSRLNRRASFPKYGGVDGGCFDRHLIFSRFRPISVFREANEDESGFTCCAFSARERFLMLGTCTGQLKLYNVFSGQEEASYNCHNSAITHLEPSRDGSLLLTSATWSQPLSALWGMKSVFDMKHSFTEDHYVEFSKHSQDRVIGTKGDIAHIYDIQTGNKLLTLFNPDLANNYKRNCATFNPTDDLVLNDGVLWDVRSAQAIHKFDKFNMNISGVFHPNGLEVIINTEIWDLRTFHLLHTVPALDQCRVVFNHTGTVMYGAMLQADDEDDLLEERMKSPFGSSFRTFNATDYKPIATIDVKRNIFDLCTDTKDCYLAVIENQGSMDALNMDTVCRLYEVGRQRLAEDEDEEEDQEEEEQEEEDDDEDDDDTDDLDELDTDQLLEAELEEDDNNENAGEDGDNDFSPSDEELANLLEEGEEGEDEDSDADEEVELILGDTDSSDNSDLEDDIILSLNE
# UniProt P23804: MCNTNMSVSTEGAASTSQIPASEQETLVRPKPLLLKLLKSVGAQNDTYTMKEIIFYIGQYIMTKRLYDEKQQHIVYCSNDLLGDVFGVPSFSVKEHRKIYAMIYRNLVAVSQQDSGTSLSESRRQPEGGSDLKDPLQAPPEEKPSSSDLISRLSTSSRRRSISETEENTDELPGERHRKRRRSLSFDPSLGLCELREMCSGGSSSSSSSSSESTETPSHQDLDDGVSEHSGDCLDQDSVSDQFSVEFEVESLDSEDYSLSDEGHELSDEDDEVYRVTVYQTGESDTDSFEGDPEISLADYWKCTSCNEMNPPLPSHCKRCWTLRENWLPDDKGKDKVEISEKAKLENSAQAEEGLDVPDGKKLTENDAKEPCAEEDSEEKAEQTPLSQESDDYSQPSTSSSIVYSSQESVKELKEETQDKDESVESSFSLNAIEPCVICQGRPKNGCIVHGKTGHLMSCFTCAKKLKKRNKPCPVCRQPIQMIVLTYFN
# UniProt P61202: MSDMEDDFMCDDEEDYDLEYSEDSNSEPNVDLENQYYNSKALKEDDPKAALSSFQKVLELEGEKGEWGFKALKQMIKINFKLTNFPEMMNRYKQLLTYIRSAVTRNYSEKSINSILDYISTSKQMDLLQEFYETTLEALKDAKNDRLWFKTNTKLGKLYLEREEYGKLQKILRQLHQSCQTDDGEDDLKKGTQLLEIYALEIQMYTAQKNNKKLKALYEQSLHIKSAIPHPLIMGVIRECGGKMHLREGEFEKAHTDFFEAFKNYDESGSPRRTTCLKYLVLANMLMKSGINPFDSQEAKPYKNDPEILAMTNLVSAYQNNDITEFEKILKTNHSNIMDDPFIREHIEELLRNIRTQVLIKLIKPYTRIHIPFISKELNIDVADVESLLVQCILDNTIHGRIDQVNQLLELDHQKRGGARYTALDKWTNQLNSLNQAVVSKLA
# UniProt Q99LD4: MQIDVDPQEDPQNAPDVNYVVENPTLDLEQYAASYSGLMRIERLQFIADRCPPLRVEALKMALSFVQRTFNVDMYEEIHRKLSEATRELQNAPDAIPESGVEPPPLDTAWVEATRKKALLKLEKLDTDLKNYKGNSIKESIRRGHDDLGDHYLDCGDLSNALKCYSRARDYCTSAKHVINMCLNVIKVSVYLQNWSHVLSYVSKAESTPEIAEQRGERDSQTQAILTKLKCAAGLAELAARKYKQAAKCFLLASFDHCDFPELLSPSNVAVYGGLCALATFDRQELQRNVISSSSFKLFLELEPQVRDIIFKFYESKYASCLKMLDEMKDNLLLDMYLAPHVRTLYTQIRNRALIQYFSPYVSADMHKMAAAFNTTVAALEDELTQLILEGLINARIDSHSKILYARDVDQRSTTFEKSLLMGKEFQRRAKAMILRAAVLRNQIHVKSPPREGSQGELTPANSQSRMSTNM
# Results are given in words; binding and its absence hold for the method and conditions named. Binding seen in cells or lysates may run through a third protein. Some results given as binding are weak or reduced against the parent protein; the word gives no strength.
# Columns and labels:
# [1] = target: DCAF1 (Ddb1-cullin4-associated-factor 1) (mouse (endogenous in CD4+ T cells)) (UniProt Q80TR8); experiment: co-IP; co-immunoprecipitation of CSN1, CSN2 with DCAF1 in TCR-stimulated CD4+ T cells, immunoblot
# [2] = target: MDM2 (mouse (endogenous in activated T cells)) (UniProt P23804); experiment: co-IP; activated T cells; the experiment stands in Supplementary Fig. 4c; which protein was precipitated is not told in the text (antibodies to DCAF1 and to MDM2 are both listed for IP)
Substance,binding [1],binding [2]
CSN2 (from UniProt P61202 1-443),binds,
CSN1 (from UniProt Q99LD4 1-471),binds,
DCAF1 (Ddb1-cullin4-associated-factor 1) (from UniProt Q80TR8 1-1506),,binds
